From PMC3642104

By UniProt entry, the sequences of proteins in these tests, tags left out.
UniProt P63208: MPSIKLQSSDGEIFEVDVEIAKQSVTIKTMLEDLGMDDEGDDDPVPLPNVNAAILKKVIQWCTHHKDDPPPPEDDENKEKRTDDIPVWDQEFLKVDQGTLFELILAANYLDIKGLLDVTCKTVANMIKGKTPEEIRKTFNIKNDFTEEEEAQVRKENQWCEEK

Assays:
Assay in all cases: affinity purification with mass spectrometry; FLAG agarose immunoprecipitation from 50 mg CHAPS lysate of transiently transfected 293T cells, overnight at 4 degrees, elution with FLAG peptide, LC-MS/MS; FLAG only lysate as control
[1] = biological target: T1, FLAG-Fbxw4^−fbox (mouse) (UniProt Q9JMJ2)
T1 sequence: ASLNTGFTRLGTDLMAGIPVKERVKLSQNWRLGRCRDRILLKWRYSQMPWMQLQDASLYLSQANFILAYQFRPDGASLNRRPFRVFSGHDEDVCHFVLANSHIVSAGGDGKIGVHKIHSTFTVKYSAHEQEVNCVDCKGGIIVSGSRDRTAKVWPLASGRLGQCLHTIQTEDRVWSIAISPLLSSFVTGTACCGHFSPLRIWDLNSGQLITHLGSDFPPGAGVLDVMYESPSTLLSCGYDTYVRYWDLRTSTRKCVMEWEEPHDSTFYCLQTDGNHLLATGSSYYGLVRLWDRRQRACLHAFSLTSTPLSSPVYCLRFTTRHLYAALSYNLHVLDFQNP

[2] = biological target: T2, FLAG-tagged Fbxo46 (mouse) (UniProt Q8BG80)
T2 sequence: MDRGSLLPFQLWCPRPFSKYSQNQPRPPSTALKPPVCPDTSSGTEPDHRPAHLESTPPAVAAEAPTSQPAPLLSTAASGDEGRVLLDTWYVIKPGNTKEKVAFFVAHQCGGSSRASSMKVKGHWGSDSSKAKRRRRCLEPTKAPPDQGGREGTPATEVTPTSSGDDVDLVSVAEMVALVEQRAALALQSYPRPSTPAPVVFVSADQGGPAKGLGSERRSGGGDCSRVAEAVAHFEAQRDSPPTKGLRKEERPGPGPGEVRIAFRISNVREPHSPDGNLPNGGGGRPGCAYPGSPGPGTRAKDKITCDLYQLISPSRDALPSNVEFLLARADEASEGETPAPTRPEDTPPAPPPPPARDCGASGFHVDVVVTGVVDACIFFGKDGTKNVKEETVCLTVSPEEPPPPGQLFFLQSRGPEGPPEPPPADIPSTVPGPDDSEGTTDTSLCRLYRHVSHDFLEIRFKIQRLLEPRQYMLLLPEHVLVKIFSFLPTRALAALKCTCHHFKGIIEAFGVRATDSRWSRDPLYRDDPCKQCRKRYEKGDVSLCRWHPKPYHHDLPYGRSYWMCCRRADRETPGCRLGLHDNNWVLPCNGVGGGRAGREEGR

[3] = biological target: T3, FLAG-tagged Fbxw4 (mouse) (UniProt Q9JMJ2)
T3 sequence: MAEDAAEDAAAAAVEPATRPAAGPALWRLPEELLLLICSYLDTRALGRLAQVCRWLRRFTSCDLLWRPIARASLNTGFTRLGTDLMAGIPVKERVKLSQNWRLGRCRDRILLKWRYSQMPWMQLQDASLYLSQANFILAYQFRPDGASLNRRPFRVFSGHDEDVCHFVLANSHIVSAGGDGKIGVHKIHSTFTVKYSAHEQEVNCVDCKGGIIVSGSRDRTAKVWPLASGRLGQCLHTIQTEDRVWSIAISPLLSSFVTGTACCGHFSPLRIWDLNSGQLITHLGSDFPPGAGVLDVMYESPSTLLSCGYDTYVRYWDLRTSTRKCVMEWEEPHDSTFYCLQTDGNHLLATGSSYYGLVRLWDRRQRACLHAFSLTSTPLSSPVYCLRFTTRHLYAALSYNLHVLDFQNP

binding [1]: no binding | binding [2]: binds | binding [3]: binds
Substance: SKP1 (from UniProt P63208 1-163)

No constants are given. Whether binding was seen depends on the method and setting. Binding seen in cells or lysates may run through a third protein. Here binding means that the protein was enriched with, or labelled near, the bait; the list need not be complete. For part of these data: A no says only that the protein was not detected with the bait. Sequences can lack the tags named with a protein.
